PubChem BioAssay AID1508597 | Cure First, 2020

Assay: 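Genes whose silencing sensitises or protects ovarian cancer cells against rucaparib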 (primary screen)
Cell system: human ovarian carcinoma lines grown from tumours: OCI-P5x (papillary serous) and OCI-C5x (clear cell)
Reagents: siRNA pool against human genes, 1.25 pmol siRNA per well
Duration: 72 h or 96 h, depending on the cell culture
Conditions: rucaparib 20 µM (about IC30) or vehicle, present until read-out
Rucaparib or vehicle: Vehicle
Cell line: OCI-C5x (clear cell)
Measurement: 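Luminescent ATP-based viability assay read 72 or 96 h after transfection, depending on culture, given as normalised percent viability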
Scale: viability, normalised: higher = more viable cells remaining
Hit rule: 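Active when normalised viability falls below 80 percent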
Meaning of the calls: active = viability under 80%; inactive = viability 80% or more
This is an unselected part of the about 2,100 reagents, in one setting of the screen. 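Calls flag viability under 80% in either arm, not effects specific to rucaparib; the reference for percent is not stated.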 Some reagents were tested in more than one well and are listed for each. The record does not give: the 100% reference.

gene symbol,PubChem SID,technical replicate,"viability, normalised (%)",Outcome
DAPK2,SID405527904,1,46.8,active
DAPK2,SID405527904,2,40.7,active
DAPK2,SID405527904,3,48,active
RASA3,SID405527229,1,60.5,active
RASA3,SID405527229,2,46.9,active
RASA3,SID405527229,3,72,active
PKD2L1,SID405527764,1,49.8,active
PKD2L1,SID405527764,2,54.5,active
PKD2L1,SID405527764,3,34,active
DDX47,SID405528192,1,34.7,active
DDX47,SID405528192,2,37.4,active
DDX47,SID405528192,3,47.5,active
SENP5,SID405526348,1,61.3,active
SENP5,SID405526348,2,53.8,active
SENP5,SID405526348,3,44.2,active
GRK6,SID405527395,1,51.5,active
GRK6,SID405527395,2,47.9,active
GRK6,SID405527395,3,64.4,active
FOXA3,SID405526794,1,41.3,active
FOXA3,SID405526794,2,53.5,active
FOXA3,SID405526794,3,65.9,active
ERCC5,SID405528272,1,56.5,active
ERCC5,SID405528272,2,55.6,active
ERCC5,SID405528272,3,58.3,active
BRSK1,SID405527929,1,54.4,active
BRSK1,SID405527929,2,66.3,active
BRSK1,SID405527929,3,47.7,active
UBE2B,SID405526600,1,25.1,active
UBE2B,SID405526600,1,32.1,active
UBE2B,SID405526600,2,76.5,active
UBE2B,SID405526600,2,33.2,active
UBE2B,SID405526600,3,53.2,active
UBE2B,SID405526600,3,40.3,active
NCOR2,SID405527066,1,34.8,active
NCOR2,SID405527066,2,30.5,active
NCOR2,SID405527066,3,35.2,active
SUV39H2,SID405526512,1,35.1,active
SUV39H2,SID405526512,2,45.7,active
SUV39H2,SID405526512,3,42.5,active

Targets listed so far whose target name starts with S or s:
gene symbol,PubChem SID,technical replicate,"viability, normalised (%)",Outcome
SENP5,SID405526348,1,61.3,active
SENP5,SID405526348,2,53.8,active
SENP5,SID405526348,3,44.2,active
SUV39H2,SID405526512,1,35.1,active
SUV39H2,SID405526512,2,45.7,active
SUV39H2,SID405526512,3,42.5,active
